These are yes or no findings as the source states them, for the method shown. Binding seen in cells or lysates may run through a third protein. Some binding calls cover weakened binding; strength is not graded here.
Molecular target: retinoblastoma coiled coil protein 1 (RB1CC1) (mouse (endogenous in mouse PSCs)) (UniProt Q9ESK9)
Assay: co-IP; PSC lysates (1 x 10^7 cells; 100 mM KCl, 5 mM MgCl2, 10 mM Hepes pH 7.0, 0.5% NP-40, 1 mM DTT) incubated with 5 ug anti-RB1CC1, anti-ULK1 or isotype control IgG at 4 C overnight, protein A/G agarose beads, western blot

Amino acid sequences for entries named in this document (tags omitted).
UniProt Q9ESK9: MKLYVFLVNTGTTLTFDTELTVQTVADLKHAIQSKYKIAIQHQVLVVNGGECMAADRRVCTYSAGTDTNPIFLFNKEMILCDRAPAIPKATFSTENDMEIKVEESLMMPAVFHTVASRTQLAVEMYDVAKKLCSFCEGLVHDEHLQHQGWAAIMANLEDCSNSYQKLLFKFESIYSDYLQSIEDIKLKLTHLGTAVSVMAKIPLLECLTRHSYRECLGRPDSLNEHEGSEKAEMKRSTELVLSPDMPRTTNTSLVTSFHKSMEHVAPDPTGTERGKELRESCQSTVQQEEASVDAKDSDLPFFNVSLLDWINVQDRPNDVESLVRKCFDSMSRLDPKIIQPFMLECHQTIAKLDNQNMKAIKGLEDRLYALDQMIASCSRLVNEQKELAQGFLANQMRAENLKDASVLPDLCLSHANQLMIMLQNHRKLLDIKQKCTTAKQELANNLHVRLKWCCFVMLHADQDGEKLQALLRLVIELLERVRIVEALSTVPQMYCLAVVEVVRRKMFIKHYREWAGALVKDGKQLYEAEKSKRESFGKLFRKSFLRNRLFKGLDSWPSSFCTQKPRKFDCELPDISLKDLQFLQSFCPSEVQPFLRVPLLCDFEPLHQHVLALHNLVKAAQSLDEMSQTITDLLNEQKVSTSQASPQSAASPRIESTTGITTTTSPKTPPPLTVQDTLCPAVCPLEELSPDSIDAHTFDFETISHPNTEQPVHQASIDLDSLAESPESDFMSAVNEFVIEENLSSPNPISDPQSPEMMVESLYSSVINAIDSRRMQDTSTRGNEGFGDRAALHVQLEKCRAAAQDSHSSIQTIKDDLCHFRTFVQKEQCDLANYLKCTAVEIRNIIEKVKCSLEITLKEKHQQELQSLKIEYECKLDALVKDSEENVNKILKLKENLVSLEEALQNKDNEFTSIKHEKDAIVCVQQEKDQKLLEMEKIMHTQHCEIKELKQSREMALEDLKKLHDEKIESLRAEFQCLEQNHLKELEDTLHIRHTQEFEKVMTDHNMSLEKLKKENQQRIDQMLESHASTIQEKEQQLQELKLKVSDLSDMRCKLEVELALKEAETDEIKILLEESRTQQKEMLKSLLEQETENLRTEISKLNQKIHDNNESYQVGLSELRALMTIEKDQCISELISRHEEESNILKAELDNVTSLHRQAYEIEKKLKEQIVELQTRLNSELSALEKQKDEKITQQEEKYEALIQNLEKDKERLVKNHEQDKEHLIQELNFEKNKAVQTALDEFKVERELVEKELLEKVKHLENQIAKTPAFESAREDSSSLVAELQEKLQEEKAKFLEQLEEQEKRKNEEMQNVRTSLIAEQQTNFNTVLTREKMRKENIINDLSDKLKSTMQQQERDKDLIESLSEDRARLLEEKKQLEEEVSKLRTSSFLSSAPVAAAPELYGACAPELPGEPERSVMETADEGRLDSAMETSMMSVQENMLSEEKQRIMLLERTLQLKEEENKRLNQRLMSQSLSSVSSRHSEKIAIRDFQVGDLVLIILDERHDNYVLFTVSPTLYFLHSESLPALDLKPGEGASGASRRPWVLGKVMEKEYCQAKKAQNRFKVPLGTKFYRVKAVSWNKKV

B1: ULK1 (protein, UniProt O70405 1-1051)
chain: MEPGRGGVETVGKFEFSRKDLIGHGAFAVVFKGRHREKHDLEVAVKCINKKNLAKSQTLLGKEIKILKELKHENIVALYDFQEMANSVYLVMEYCNGGDLADYLHTMRTLSEDTVRLFLQQIAGAMRLLHSKGIIHRDLKPQNILLSNPGGRRANPSNIRVKIADFGFARYLQSNMMAATLCGSPMYMAPEVIMSQHYDGKADLWSIGTIVYQCLTGKAPFQASSPQDLRLFYEKNKTLVPAIPRETSAPLRQLLLALLQRNHKDRMDFDEFFHHPFLDASTPIKKSPPVPVPSYPSSGSGSSSSSSSASHLASPPSLGEMPQLQKTLTSPADAAGFLQGSRDSGGSSKDSCDTDDFVMVPAQFPGDLVAEAASAKPPPDSLLCSGSSLVASAGLESHGRTPSPSPTCSSSPSPSGRPGPFSSNRYGASVPIPVPTQVHNYQRIEQNLQSPTQQQTARSSAIRRSGSTTPLGFGRASPSPPSHTDGAMLARKLSLGGGRPYTPSPQVGTIPERPSWSRVPSPQGADVRVGRSPRPGSSVPEHSPRTTGLGCRLHSAPNLSDFHVVRPKLPKPPTDPLGATFSPPQTSAPQPCPGLQSCRPLRGSPKLPDFLQRSPLPPILGSPTKAGPSFDFPKTPSSQNLLTLLARQGVVMTPPRNRTLPDLSEASPFHGQQLGSGLRPAEDTRGPFGRSFSTSRITDLLLKAAFGTQASDSGSTDSLQEKPMEIAPSAGFGGTLHPGARGGGASSPAPVVFTVGSPPSGATPPQSTRTRMFSVGSSSSLGSTGSSSARHLVPGACGEAPELSAPGHCCSLADPLAANLEGAVTFEAPDLPEETLMEQEHTETLHSLRFTLAFAQQVLEIAALKGSASEAAGGPEYQLQESVVADQISQLSREWGFAEQLVLYLKVAELLSSGLQTAIDQIRAGKLCLSSTVKQVVRRLNELYKASVVSCQGLSLRLQRFFLDKQRLLDGIHGVTAERLILSHAVQMVQSAALDEMFQHREGCVPRYHKALLLLEGLQHTLTDQADIENIAKCKLCIERRLSALLSGVYA
binding: binds

From paper PMC6147947
